# Results published in the supplement of paper PMC5949888.
# Most values lie at the floor of the assay. Slopes are relative: functional sequences can read slightly below zero.
# Test system: Saccharomyces cerevisiae PS128 hsf1 delta, HSF1(1-493) fusion
# Experiment: growth estimate (transactivation domain function in HSF1 fusion, heat-shock survival) (a.u. (slope of normalised read count over time)); higher = stronger growth at 37°C, i.e. more transactivation activity
# Conditions: library: random library
row,Substance,growth estimate
1,IIYPSTPRTAALFVVPQRRD,< -0.25
2,AVELVSVCERSFLTVLQGFP,-0.246
3,GMNPAVRGPDRCNGLSMRLG,< -0.25
4,AVCTAMEVNIPLLLLDEVRV,< -0.25
5,NVSQIGCARATIAARPCSKL,< -0.25
6,AAES,< -0.25
7,IPDALMHQDWPLKSRSSQCD,< -0.25
8,LLSNRG,< -0.25
9,PLQILTTQLYSAQFHGLVRN,< -0.25
10,GGVEAD,< -0.25
11,QYVNPG,< -0.25
12,TQEEDAVPYGRSAGARG,< -0.25
13,VHPDMSSGLNP,< -0.25
14,DSSRPTHGHVIVGNFSVKLP,< -0.25
15,KLPEAASFRRGHHVWE,< -0.25
16,TQRANVAGSQGLRTRAKGVK,< -0.25
17,QECSGPQVGSYQDGEYT,< -0.25
18,ALPVPRAMPHHFFVSCVV,< -0.25
19,LNGCHSGRKRSALWFPGAEG,< -0.25
20,KVVSFGGGVGV,< -0.25
21,IHWCPTCCARWDTLHFLTLC,< -0.25
22,CRRVV,< -0.25
23,SNQWENGGLGAEP,< -0.25
24,HRMNNFHYRWHL,-0.218
25,TNTS,-0.243

# Reformatted with tabs: part of the list above
row	Substance	growth estimate
1	IIYPSTPRTAALFVVPQRRD	< -0.25
6	AAES	< -0.25
7	IPDALMHQDWPLKSRSSQCD	< -0.25
18	ALPVPRAMPHHFFVSCVV	< -0.25
21	IHWCPTCCARWDTLHFLTLC	< -0.25
22	CRRVV	< -0.25
23	SNQWENGGLGAEP	< -0.25

# Next part.

row,Substance,growth estimate
1,CAAEYLTWAEDEAVAVYPHS,< -0.25
2,ESGHAGGPVVPGPTRRFLWG,< -0.25
3,HYAMWGVEFNTLM,< -0.25
4,PSGSAALRSCDHGSPRIPLA,< -0.25
5,GSPFWVRAER,< -0.25
6,MCKSYSQGASPRICQDEHQS,< -0.25
7,HEGNLFRKVATRTSGST,< -0.25
8,RHEGVQDRISSTGGRF,< -0.25
9,RVYASRCPT,< -0.25
10,IGECTKWRSYDDIHYIPTAF,< -0.25
11,TSTEAAGYFSLSVFKLGYRH,< -0.25
12,EKDTKPRDR,< -0.25
13,QNGRALGSWGNRLRWVG,< -0.25
14,LSTLATKLCDSGVFG,< -0.25
15,HRVSSCLRKHMGLEWPPMWA,< -0.25
16,KVANHSSSEASDLATICYGG,< -0.25
17,INRSLDLGLFVVETLLWQGT,< -0.25
18,GTHLQLQGVLVDQYRVALVQ,< -0.25
19,TFACHIPHIIRVKGGVCVVS,< -0.25
20,GIVLPGQSAPAPVEFGNVSL,< -0.25
21,GVGSQTGVRSNKSWRYLRGV,< -0.25
22,NTWVSG,< -0.25
23,QCVIEMQRGGLVHIALPTSP,< -0.25
24,PRPLPWPLSDGGGLR,< -0.25
25,DGGSSCHLPSDGRRRSVLRH,< -0.25

row,Substance,growth estimate
1,KDPIRCTSERIHTPSGGLTA,< -0.25
2,SFTPRPAGRVSGRDSQSWVA,< -0.25
3,DGSLVLPKVHYRA,< -0.25
4,TPT,< -0.25
5,IRLECSSESAIRDRPTGTVI,< -0.25
6,LTSSTLCRSYAPGIDMRLAI,< -0.25
7,EGIGANQE,< -0.25
8,TQGIYVRGH,< -0.25
9,SRRLLLMSWPRPVAVWAPAS,< -0.25
10,GLSLHAVQGSSPGLKSRQKV,< -0.25
11,VIDTDRSGVVRKVVDHRPPA,-0.112
12,LYVQPTVFVHPVGRVEAFCT,< -0.25
13,RTRRGVRARFFWKR,-0.231
14,CNAQLRV,< -0.25
15,TVLATRNWKVTRSRLQQNRH,< -0.25
16,SQKLGSADTL,< -0.25
17,SRLQGAYSCAYYDIRPSGCA,< -0.25
18,VGNLAAEPG,-0.246
19,TFSTRLNGPPTRVRRSARCV,< -0.25
20,REGLGRRRRRASRSHVF,< -0.25
21,DNRTLRKTRRRDDVACKPEH,< -0.25
22,SVCP,< -0.25
23,MSNWFDR,< -0.25
24,FGVVELGSRGVSRISWLHGI,< -0.25
25,RACKLQGYWRVWSACCDVYS,< -0.25

row,Substance,growth estimate
1,MQRIGERPHWEKDPELHKVP,< -0.25
2,CVEIPFGCTSWVARPRVRNI,< -0.25
3,HYNSLRTKDFTIL,< -0.25
4,SVAVKPIT,< -0.25
5,NKPIKPSTAPRG,< -0.25
6,AVQRAKPVSHRVPVA,< -0.25
7,RLRELTSQAEVRSTIELTSD,< -0.25
8,CHLSTRWMRHDMVRTSICVT,< -0.25
9,KSRELAIVTVM,< -0.25
10,RGLIDGARPEAAFERRVTRG,< -0.25
11,LISNTEGYQSSQTGVTVRSP,< -0.25
12,MYTKPMSWDIFTTLSRLQGL,< -0.25
13,SCSDRGPKKCGACSTE,< -0.25
14,AANS,< -0.25
15,LRSEPNCFAIVLFGGTPV,< -0.25
16,SGRHV,< -0.25
17,PYVLLK,< -0.25
18,ARWVSSPILTGGCVIAGSTI,< -0.25
19,RGMQAGFEFMA,< -0.25
20,RKERLQRVFSVNLFGCP,< -0.25
21,WGLTFTTKFEAIWSSGA,< -0.25
22,PSLLHEPLNPALGVPHRGPI,< -0.25
